Results deposited as PubChem BioAssay AID1259425 (University of Nebraska Medical Center, 2018).

Assay: 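Compare each knockdown with KSR1 silencing using changes in marker transcripts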 (primary screen)
Cells: HCT116 human colon cancer cells
Reagent: siRNA pool against human genes, 50 nM siRNA
Detection: 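mRNA of six signature genes measured together by branched-DNA assay after 50 nM siRNA pool, blank removed, divided by geometric mean of two housekeeping genes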
Direction: BNIP3L mRNA: higher = more BNIP3L transcript after knockdown; NDRG1 mRNA: higher = more NDRG1 transcript after knockdown
The whole screen tested about 14,000 reagents; shown is a part drawn at random. Not all columns of the deposit are shown. The record does not give: the time to read-out.

ANGEL1
- BNIP3L mRNA, set 1: 0.125
- NDRG1 mRNA, set 1: 0.36

FLAD1
- BNIP3L mRNA, set 1: 0.106
- NDRG1 mRNA, set 1: 0.309

KCNJ10
- BNIP3L mRNA, set 1: 0.076
- NDRG1 mRNA, set 1: 0.39

CELA3B
- BNIP3L mRNA, set 1: 0.14
- NDRG1 mRNA, set 1: 0.491

SRD5A2
- BNIP3L mRNA, set 1: 0.0471
- NDRG1 mRNA, set 1: 0.1

GYG2
- BNIP3L mRNA, set 1: 0.0981
- NDRG1 mRNA, set 1: 0.161

NDUFC1
- BNIP3L mRNA, set 1: 0.18
- NDRG1 mRNA, set 1: 0.061

PRKCH
- BNIP3L mRNA, set 1: 0.346
- NDRG1 mRNA, set 1: 0.543

ABHD13
- BNIP3L mRNA, set 1: 0.128
- NDRG1 mRNA, set 1: 0.321

NUB1
- BNIP3L mRNA, set 1: 0.234
- NDRG1 mRNA, set 1: 0.372

TOMM34
- BNIP3L mRNA, set 1: 0.123
- NDRG1 mRNA, set 1: 0.155

CSNK1G2
- BNIP3L mRNA, set 1: 0.105
- NDRG1 mRNA, set 1: 0.329

CDS1
- BNIP3L mRNA, set 1: 0.0725
- NDRG1 mRNA, set 1: 0.0945

TMEM63B
- BNIP3L mRNA, set 1: 0.512
- NDRG1 mRNA, set 1: 0.582

ISG15
- BNIP3L mRNA, set 1: 0.129
- NDRG1 mRNA, set 1: 0.176

PLXNC1
- BNIP3L mRNA, set 1: 0.142
- NDRG1 mRNA, set 1: 0.0411

SLC61A1
- BNIP3L mRNA, set 1: 0.183
- NDRG1 mRNA, set 1: 0.133

RFPL1
- BNIP3L mRNA, set 1: 0.0598
- NDRG1 mRNA, set 1: 0.698

RMP24
- BNIP3L mRNA, set 1: 0.214
- NDRG1 mRNA, set 1: 1.47

NLN
- BNIP3L mRNA, set 1: 0.105
- NDRG1 mRNA, set 1: 0.409

MS4A6A
- BNIP3L mRNA, set 1: 0.077
- NDRG1 mRNA, set 1: 0.177

TUT1
- BNIP3L mRNA, set 1: 0.108
- NDRG1 mRNA, set 1: 0.421

ACADSB
- BNIP3L mRNA, set 1: 0.0757
- NDRG1 mRNA, set 1: 0.0899

SUSD4
- BNIP3L mRNA, set 1: 0.116
- NDRG1 mRNA, set 1: 0.562

ZNF112
- BNIP3L mRNA, set 1: 0.129
- NDRG1 mRNA, set 1: 0.462

TFRC
- BNIP3L mRNA, set 1: 0.257
- NDRG1 mRNA, set 1: 0.694

MRPL37
- BNIP3L mRNA, set 1: 0.117
- NDRG1 mRNA, set 1: 0.124

TNIP1
- BNIP3L mRNA, set 1: 0.185
- NDRG1 mRNA, set 1: 0.207

2 entries already listed, arranged by “BNIP3L mRNA, set 1”, highest first:
NLN
- BNIP3L mRNA, set 1: 0.105
- NDRG1 mRNA, set 1: 0.409

MS4A6A
- BNIP3L mRNA, set 1: 0.077
- NDRG1 mRNA, set 1: 0.177
